Reference: PubChem BioAssay AID1259254 (NCATS, 2017)
The deposit covers about 59,000 reagents; this is a part drawn at random. About 1,550 of them (2.6%) count as active. 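G2 share is only a proxy for re-replication; each gene was hit by three separate siRNAs, and active genes were retested.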 Reagents against one gene are numbered here. Not all columns of the deposit are shown. The record does not give: the amount of reagent.

- Screen: 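Genome-wide screen for genes that prevent DNA re-replication in cancer cells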 (primary screen)
- System: human HCT116 colorectal cancer cells
- Reagents: single siRNA against human genes
- Timing: 3 days
- Measured: 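Imaged Hoechst DNA stain sorts each cell into a cycle phase by DNA amount; per plate, G2 fraction set to 0% for non-targeting and 100% for GMNN siRNA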
- Scale: G2 robust z-score and G2 cells, % of GMNN control: higher = more G2 cells, more excess DNA replication
- Rule for the call: 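Active siRNAs have a G2 robust z of 5 or more median absolute deviations over the median, which in these data means about 38% or higher of GMNN control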

Knock-down of ITGB6 #1 gave: G2 robust z-score -0.696; G2 cells, % of GMNN control -1.93; inactive.
Against ITGB6 #2 the deposit lists G2 robust z-score 0.142; G2 cells, % of GMNN control 3.96; inactive.
Depletion of ITGB6 #3 gave: G2 robust z-score 3.19; G2 cells, % of GMNN control 25.4; inactive.
With knock-down of PLBD1 #1, the screen gave G2 robust z-score 1.51; G2 cells, % of GMNN control 13.6; inactive.
Against PLBD1 #2 the deposit lists G2 robust z-score -0.685; G2 cells, % of GMNN control -1.85; inactive.
Silencing of PLBD1 #3 gave: G2 robust z-score -0.506; G2 cells, % of GMNN control -0.594; inactive.
After knock-down of MYOG #1 the results were G2 robust z-score -0.475; G2 cells, % of GMNN control -0.374; inactive.
Depletion of MYOG #2 resulted in: G2 robust z-score -0.896; G2 cells, % of GMNN control -3.34; inactive.
For MYOG #3, the entry reads G2 robust z-score -0.427; G2 cells, % of GMNN control -0.0393; inactive.
Against CIMAP2 #1, the entry reads G2 robust z-score 0.807; G2 cells, % of GMNN control 8.65; inactive.
Knock-down of CIMAP2 #2 came out at: G2 robust z-score 3.69; G2 cells, % of GMNN control 28.9; inactive.
With knock-down of CIMAP2 #3, the record shows G2 robust z-score 2.5; G2 cells, % of GMNN control 20.5; inactive.
For LGI4 #1, the entry reads G2 robust z-score 0.16; G2 cells, % of GMNN control 4.09; inactive.
LGI4 #2 showed G2 robust z-score -0.864; G2 cells, % of GMNN control -3.11; inactive.
Depletion of LGI4 #3 resulted in: G2 robust z-score 1.03; G2 cells, % of GMNN control 10.2; inactive.

Part of the list above in another layout:
target gene | reagent | G2 robust z-score | G2 cells, % of GMNN control | call
ITGB6 | 3 | 3.19 | 25.4 | inactive
PLBD1 | 1 | 1.51 | 13.6 | inactive
PLBD1 | 2 | -0.685 | -1.85 | inactive
PLBD1 | 3 | -0.506 | -0.594 | inactive
MYOG | 1 | -0.475 | -0.374 | inactive

More reagents follow.
Knock-down of MLXIP #1 gave: G2 robust z-score 0.631; G2 cells, % of GMNN control 7.41; inactive.
MLXIP #2 scored G2 robust z-score -0.00718; G2 cells, % of GMNN control 2.92; inactive.
Against MLXIP #3, the values are G2 robust z-score 0.328; G2 cells, % of GMNN control 5.28; inactive.
AFDN #1 showed G2 robust z-score 3.41; G2 cells, % of GMNN control 27; inactive.
With knock-down of AFDN #2, the record shows G2 robust z-score 0.59; G2 cells, % of GMNN control 7.12; inactive.
AFDN #3 scored G2 robust z-score -1.07; G2 cells, % of GMNN control -4.57; inactive.
For AFDN #4 the deposit lists G2 robust z-score 0.0737; G2 cells, % of GMNN control 3.49; inactive.
Knock-down of AFDN #5 resulted in: G2 robust z-score 5.85; G2 cells, % of GMNN control 44.2; active.
AFDN #6 gave G2 robust z-score 2.47; G2 cells, % of GMNN control 20.3; inactive.
MSTN #1 gave G2 robust z-score 1.19; G2 cells, % of GMNN control 11.4; inactive.
Knock-down of MSTN #2 resulted in: G2 robust z-score -0.964; G2 cells, % of GMNN control -3.81; inactive.
Knock-down of MSTN #3 gave: G2 robust z-score 2.27; G2 cells, % of GMNN control 18.9; inactive.
SLC25A51P1 #1 gave G2 robust z-score 1.16; G2 cells, % of GMNN control 11.1; inactive.
For SLC25A51P1 #2, the values are G2 robust z-score -1.12; G2 cells, % of GMNN control -4.88; inactive.
Against SLC25A51P1 #3 the deposit lists G2 robust z-score 0.433; G2 cells, % of GMNN control 6.01; inactive.
